For some of these results: For at least one compound, name, drawing or mass did not settle the structure. Some entries share one result that the patent states for a list of compounds.
Legend:
K. pneumoniae = assay: Agar dilution MIC, South African isolates; type: cell-based, Klebsiella pneumoniae; settings: resistance phenotype Kpn3 (K. pneumoniae Pit 68), 1 strain; tzp with tazobactam 4 μg/ml
From the text: The strains were provided in response to a request for all strains of Enterobacteriaceae, lacking inducible beta-lactamases, that were intermediate or resistant to cefotaxime or ceftazidime. […]

K. pneumoniae 225 [1] = assay: NCCLS disk diffusion assay; type: cell-based, Klebsiella pneumoniae; settings: Kleb 225
K. pneumoniae 225 [2] = assay: MicroScan Walkaway microdilution susceptibility test; type: cell-based, Klebsiella pneumoniae
E. aerogenes = type: cell-based, Enterobacter aerogenes; settings: all E. aerogenes strains
Description: Antibiotic susceptibilities were determined by standard disk-diffusion (NCCLS Standard M2-A6) and agar-dilution (NCCLS Standard M7-A4) procedures. Disks were obtained from Becton Dickinson Microbiology Systems (Cockeysville, Md.). […] Throughout this study, results were interpreted using NCCLS criteria for disk diffusion (NCCLS M2-A6) and broth dilution (NCCLS M7-A4).

K. pneumoniae 225 [3] = assay: NCCLS microdilution susceptibility test; type: cell-based, Klebsiella pneumoniae; settings: Mueller-Hinton broth

Question: `C[C@H]1[C@H](NC(=O)/C(=N\OC(C)(C)C(=O)O)c2csc(N)n2)C(=O)N1S(=O)(=O)O` [aztreonam] was tested. Which MIC range (K. pneumoniae) did it give?
Answer: The MIC range was > 2 µg/mL.

Question: Which MIC range (K. pneumoniae) does the source give for `CO/N=C(\C(=O)N[C@@H]1C(=O)N2C(C(=O)O)=C(COC(C)=O)CS[C@H]12)c1csc(N)n1` [cefotaxime] here?
Answer: The MIC range was > 2 µg/mL.

Question: For `CO[C@@]1(NC(=O)C2SC(=C(C(N)=O)C(=O)O)S2)C(=O)N2C(C(=O)O)=C(CSc3nnnn3C)CS[C@@H]21` (stereo partly shown) [cefotetan], which Disk diffusion interpretation (K. pneumoniae 225 [1]) is on record?
Answer: The Disk diffusion interpretation was “resistant”.

Question: What about the MicroScan susceptibility result (K. pneumoniae 225 [2]) of the same compound?
Answer: The MicroScan susceptibility result was “Susceptible”.

Question: `CC(C)(O/N=C(\C(=O)N[C@@H]1C(=O)N2C(C(=O)[O-])=C(C[n+]3ccccc3)CS[C@H]12)c1csc(N)n1)C(=O)O` [ceftazidime] was tested. Which MIC range (K. pneumoniae) did it give?
Answer: The MIC range was > 2 µg/mL.

Question: `C[C@@H](O)[C@H]1C(=O)N2C(C(=O)O)=C(SCCN=CN)C[C@H]12` [imipenem] was tested. Which “susceptibility by MIC” value (E. aerogenes) did it give?
Answer: Its value is “susceptible”.

Question: How did the MicroScan susceptibility result (K. pneumoniae 225 [2]) turn out when `C[C@H]1COc2c(N3CCN(C)CC3)c(F)cc3c(=O)c(C(=O)O)cn1c23` [levofloxacin] was run?
Answer: The MicroScan susceptibility result was “Susceptible”.

Question: With `N[C@@H](C(=O)N[C@@H]1C(=O)N2C(C(=O)O)=C(Cl)CC[C@H]12)c1ccccc1` [loracarbef] as the compound, how does the MIC (K. pneumoniae 225 [3]) read?
Answer: The MIC was > 64 µg/mL.

Question: For `CC1COc2c(N3CCN(C)CC3)c(F)cc3c(=O)c(C(=O)O)cn1c23` (stereo not shown) [ofloxacin], which MicroScan susceptibility result (K. pneumoniae 225 [2]) is on record?
Answer: The MicroScan susceptibility result was “Susceptible”.

Question: Which MIC (K. pneumoniae 225 [3]) does the source give for ampicillin/sulbactam here?
Answer: The MIC was > 64 µg/mL.

Question: For gentamicin, which “MicroScan MIC” value (K. pneumoniae 225 [2]; MicroScan test) is on record?
Answer: Its value is > 8 µg/mL.

Question: Which MIC (K. pneumoniae 225 [3]) does the source give for piperacillin/tazobactam here?
Answer: The MIC was > 64 µg/mL.

Question: How did the MIC (K. pneumoniae 225 [3]) turn out when ticarcillin/clavulanate was run?
Answer: The MIC was > 64 µg/mL.

From patent US6893846B2, “Primers for use in detecting beta-lactamases” (priority 1998, dated 2005)
